US8030300B2, “Ligands for nicotinic acetylcholine receptors, and methods of making and using them” (priority 2003, dated 2011)
pKi: −log10 of the molar value. The match of structure and compound is tentative.

Sequences of proteins named here, by UniProt entry; tags and fusion partners are left off. Residues count along the entry.
UniProt P04757, 26-499 limits assumed: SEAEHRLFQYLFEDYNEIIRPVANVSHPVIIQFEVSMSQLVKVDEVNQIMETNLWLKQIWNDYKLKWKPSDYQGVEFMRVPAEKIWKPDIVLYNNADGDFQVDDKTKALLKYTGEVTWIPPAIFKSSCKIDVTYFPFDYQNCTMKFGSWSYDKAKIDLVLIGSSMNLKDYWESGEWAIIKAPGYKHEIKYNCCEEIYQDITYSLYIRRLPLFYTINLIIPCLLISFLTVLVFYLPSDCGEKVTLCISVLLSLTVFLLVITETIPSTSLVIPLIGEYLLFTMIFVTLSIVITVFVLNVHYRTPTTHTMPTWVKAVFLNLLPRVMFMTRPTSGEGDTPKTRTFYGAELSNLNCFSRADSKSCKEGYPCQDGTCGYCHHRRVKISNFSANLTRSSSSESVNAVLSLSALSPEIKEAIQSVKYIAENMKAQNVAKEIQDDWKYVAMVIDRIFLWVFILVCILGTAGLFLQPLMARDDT
UniProt P12390, 25-500 limits assumed: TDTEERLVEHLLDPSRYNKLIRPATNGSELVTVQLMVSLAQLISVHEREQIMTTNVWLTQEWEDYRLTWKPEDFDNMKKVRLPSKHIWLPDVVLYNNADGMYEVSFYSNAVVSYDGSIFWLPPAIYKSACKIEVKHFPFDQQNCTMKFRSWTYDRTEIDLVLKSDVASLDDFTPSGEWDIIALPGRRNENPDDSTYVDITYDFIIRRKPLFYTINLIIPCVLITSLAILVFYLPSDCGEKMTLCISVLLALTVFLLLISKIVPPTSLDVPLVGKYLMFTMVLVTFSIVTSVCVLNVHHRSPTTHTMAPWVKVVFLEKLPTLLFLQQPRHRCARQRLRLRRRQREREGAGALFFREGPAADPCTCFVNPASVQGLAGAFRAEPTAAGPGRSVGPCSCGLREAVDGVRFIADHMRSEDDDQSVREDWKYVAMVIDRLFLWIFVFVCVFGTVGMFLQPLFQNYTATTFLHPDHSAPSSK
UniProt P12389, 28-511 limits assumed: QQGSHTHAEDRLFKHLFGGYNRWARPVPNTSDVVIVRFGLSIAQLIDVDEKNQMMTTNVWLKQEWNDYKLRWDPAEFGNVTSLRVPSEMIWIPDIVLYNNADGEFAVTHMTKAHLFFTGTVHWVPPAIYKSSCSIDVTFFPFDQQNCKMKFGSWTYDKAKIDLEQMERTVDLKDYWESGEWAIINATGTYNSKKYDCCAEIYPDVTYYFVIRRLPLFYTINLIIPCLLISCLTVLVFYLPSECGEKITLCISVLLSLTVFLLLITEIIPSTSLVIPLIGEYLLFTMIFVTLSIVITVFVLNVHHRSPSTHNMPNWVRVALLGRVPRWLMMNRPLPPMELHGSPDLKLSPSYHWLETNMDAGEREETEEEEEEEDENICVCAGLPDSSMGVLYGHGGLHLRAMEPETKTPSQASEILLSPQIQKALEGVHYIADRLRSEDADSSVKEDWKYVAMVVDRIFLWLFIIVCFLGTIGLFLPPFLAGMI
UniProt P09483, 31-630 limits assumed: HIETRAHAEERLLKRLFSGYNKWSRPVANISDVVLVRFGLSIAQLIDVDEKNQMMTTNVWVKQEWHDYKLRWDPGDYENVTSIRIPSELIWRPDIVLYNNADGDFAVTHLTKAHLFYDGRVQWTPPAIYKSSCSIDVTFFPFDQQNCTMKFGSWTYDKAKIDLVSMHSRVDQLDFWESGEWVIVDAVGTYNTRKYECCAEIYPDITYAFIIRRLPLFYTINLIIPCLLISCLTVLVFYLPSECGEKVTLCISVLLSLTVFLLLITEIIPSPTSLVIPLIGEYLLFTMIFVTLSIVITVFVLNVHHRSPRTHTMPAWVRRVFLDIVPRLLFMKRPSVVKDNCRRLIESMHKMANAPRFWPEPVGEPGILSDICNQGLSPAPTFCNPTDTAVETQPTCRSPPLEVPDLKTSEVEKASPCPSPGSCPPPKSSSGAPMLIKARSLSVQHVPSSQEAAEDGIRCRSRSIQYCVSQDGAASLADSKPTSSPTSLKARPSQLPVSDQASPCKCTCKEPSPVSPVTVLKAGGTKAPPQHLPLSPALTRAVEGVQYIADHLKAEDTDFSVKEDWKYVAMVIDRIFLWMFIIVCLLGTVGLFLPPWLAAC
UniProt P12392, 21-495 limits assumed: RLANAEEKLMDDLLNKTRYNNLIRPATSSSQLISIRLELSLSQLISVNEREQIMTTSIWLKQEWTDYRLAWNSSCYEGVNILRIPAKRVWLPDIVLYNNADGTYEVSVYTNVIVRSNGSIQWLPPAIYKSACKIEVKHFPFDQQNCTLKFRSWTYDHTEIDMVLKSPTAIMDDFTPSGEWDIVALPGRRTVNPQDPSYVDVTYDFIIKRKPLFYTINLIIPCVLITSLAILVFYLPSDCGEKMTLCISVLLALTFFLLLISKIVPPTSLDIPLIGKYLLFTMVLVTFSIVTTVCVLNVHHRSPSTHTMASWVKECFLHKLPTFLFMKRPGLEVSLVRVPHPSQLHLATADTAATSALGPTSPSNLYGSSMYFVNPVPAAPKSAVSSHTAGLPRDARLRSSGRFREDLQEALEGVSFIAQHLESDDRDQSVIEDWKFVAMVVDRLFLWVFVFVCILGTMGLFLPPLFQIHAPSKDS

Key:
α3β2 nAChR subtype = α3β2 nAChR subtype (Rattus norvegicus, UniProt P04757+P12390); conditions: read-out: Ki α3β2
α2β2 nAChR subtype = α2β2 nAChR subtype (Rattus norvegicus, UniProt P12389+P12390); conditions: read-out: Ki α2β2
α4β4 nAChR subtype = α4β4 nAChR subtype (Rattus norvegicus, UniProt P09483+P12392); conditions: read-out: Ki α4β4

FC1CC2NC1CC2c1ccc(Cl)nc1 (stereo not drawn) [Ligand 10, 2-exo-(2-Chloro-5-pyridyl)-5-exo-fluoro-7-azabicyclo[2.2.1]heptane]
pKi (α3β2 nAChR subtype): 9.19 | pKi (α2β2 nAChR subtype): 9.07 | pKi (α4β4 nAChR subtype): 8.91
